Results: BindingDB's records for doi:10.1016/j.bmcl.2004.01.050 (Cnrs, 2004)

Biological target: T1, Casein kinase I isoform alpha (Rattus norvegicus, UniProt P97633)
T1 sequence (P97633 whole entry): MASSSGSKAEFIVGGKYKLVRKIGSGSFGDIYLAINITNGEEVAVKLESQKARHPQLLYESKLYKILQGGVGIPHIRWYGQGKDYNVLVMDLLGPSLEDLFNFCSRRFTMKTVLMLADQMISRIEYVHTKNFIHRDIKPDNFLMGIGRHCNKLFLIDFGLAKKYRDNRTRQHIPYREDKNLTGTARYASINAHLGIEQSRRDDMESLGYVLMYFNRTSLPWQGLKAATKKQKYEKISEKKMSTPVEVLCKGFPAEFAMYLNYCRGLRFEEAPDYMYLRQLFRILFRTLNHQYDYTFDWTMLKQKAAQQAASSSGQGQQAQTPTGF

For `CC[C@H](CO)Nc1nc(NCc2ccccc2)c2ncn(C(C)C)c2n1` [2,6,9-Trisubstituted purine deriv. 28], the IC50 was 17 µM.
